Earlier results, collected in patent US11963942B2, “Oral taxane compositions and methods” (Athenex HK Innovative Limited, priority 2015, dated 2024).

solubility in water: less than 0.01 mg/mL
SMILES: CC(=O)O[C@H]1C(=O)[C@@]2(C)[C@H]([C@H](OC(=O)c3ccccc3)[C@]3(O)C[C@H](OC(=O)[C@H](O)[C@@H](NC(=O)c4ccccc4)c4ccccc4)C(C)=C1C3(C)C)[C@]1(OC(C)=O)CO[C@@H]1C[C@@H]2O [paclitaxel]
